Test results published in paper PMC5443569.
Results are given in words; binding and its absence hold for the method and conditions named. In cells and extracts the contact can be indirect. Some binding calls cover weakened binding; strength is not graded here. Tags and fused reporters may be left off the sequences shown.

By UniProt entry, the sequences of proteins in these tests, tags left out. Where a name states a change or a piece, a line headed by the entry shows the natural chain unless it says otherwise.
UniProt P43360: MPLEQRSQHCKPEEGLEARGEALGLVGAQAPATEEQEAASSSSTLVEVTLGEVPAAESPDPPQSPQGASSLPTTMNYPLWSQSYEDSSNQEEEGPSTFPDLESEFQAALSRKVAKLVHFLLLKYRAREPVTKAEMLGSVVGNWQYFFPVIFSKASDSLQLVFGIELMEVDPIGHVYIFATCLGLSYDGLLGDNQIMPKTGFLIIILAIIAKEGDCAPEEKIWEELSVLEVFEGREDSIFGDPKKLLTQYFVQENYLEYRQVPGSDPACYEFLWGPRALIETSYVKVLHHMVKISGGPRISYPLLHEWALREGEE

Target: T1, Flag-MageA11 (human) (UniProt P43364)
T1 sequence: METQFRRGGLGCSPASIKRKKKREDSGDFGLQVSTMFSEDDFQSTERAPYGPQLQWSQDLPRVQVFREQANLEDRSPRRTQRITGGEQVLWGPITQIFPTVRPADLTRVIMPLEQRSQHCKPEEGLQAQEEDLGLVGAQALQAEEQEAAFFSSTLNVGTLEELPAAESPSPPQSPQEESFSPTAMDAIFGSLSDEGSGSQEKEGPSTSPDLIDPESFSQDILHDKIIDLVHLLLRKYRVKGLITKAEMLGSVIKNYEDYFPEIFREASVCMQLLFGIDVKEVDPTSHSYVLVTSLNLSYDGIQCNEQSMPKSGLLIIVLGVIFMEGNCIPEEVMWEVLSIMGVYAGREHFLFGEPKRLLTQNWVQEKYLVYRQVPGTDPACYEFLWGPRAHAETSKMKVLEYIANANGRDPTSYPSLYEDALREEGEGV
Assay: co-IP; tagged proteins co-expressed in HEK293T cells; lysis buffer 50mM Tris-HCl pH 8.0, 150mM NaCl, 1% NP-40; IP with anti-FLAG M2 antibody and Protein A-Sepharose 3h at 4°C; Western blot with anti-tag antibodies; also seen in cells co-expressing HA-ubiquitin and treated with 10 μM MG132

For HA-MageA6 (from UniProt P43360 1-314), the binding was “binds”.

For “GFP-MHD-MageA6 (from UniProt P43360 110-304) (domain or fragment)”, the binding was “binds”.
